Measurements reported in PubChem BioAssay AID1259308 (NCATS, 2017)

Purpose: 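Candidate targets for better recombinant protein yield in mammalian cells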 (primary screen)
System: human HEK293 embryonic kidney cells stably expressing firefly luciferase (HEK-CMV-Luc2-Hygro)
Reagent: single siRNA against human genes, 0.8 pmol siRNA per well
Timing: 72 h
Measurement: 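Reporter luminescence and viable-cell signal on separate replicate plates, given as percent of non-targeting control and median/MAD z-scores, plus per-cell luciferase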
Reading the numbers: total luciferase, z-score and total luciferase, % of control: higher = more reporter protein produced; luciferase per cell, z-score: higher = more reporter output per viable cell; viable cells, % of control: higher = more viable cells
Hit rule: 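An siRNA counts as active if its total luciferase robust z-score exceeds 3; genes with two or more such siRNAs out of three were retested with fresh siRNAs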
Calls: active = raised luciferase; inactive = no rise
In all, the deposit lists about 59,000 reagents; this is a part drawn at random. In the full data, about 1,510 (2.6%) got an active call. 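Calls use total luciferase alone and ignore viability, so some active siRNAs may act by altering cell number.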 Reagent sequences are not shown.

| Gene | PubChem SID | total luciferase, z-score | total luciferase, % of control | luciferase per cell, z-score | viable cells, % of control | Call |
| --- | --- | --- | --- | --- | --- | --- |
| PNPLA6 (GeneID 10908) | SID160729489 | 0.39 | 89.6 | -0.107 | 103 | inactive |
| PNPLA6 (GeneID 10908) | SID160729490 | 2.94 | 140 | 1.76 | 98.8 | inactive |
| PNPLA6 (GeneID 10908) | SID160729491 | 2.82 | 138 | 2.19 | 86.7 | inactive |
| PCDHGA10 (GeneID 56106) | SID160744779 | -0.364 | 74.7 | -0.76 | 102 | inactive |
| PCDHGA10 (GeneID 56106) | SID160744780 | -0.27 | 76.5 | -0.456 | 96.4 | inactive |
| PCDHGA10 (GeneID 56106) | SID160744781 | -0.769 | 66.6 | -0.296 | 80.4 | inactive |
| KCNIP3 (GeneID 30818) | SID160739523 | 2.01 | 122 | 1.26 | 97.8 | inactive |
| KCNIP3 (GeneID 30818) | SID160739524 | 0.551 | 92.8 | 1.09 | 77.9 | inactive |
| KCNIP3 (GeneID 30818) | SID160739525 | -0.225 | 77.4 | -0.578 | 101 | inactive |
| CDH22 (GeneID 64405) | SID160747728 | -0.033 | 81.2 | 0.507 | 79.4 | inactive |
| CDH22 (GeneID 64405) | SID160747729 | 0.767 | 97.1 | 0.757 | 88.9 | inactive |
| CDH22 (GeneID 64405) | SID160747732 | 0.0852 | 83.6 | -0.172 | 97.7 | inactive |
| CRYGD (GeneID 1421) | SID160723717 | 0.0609 | 83.1 | 0.208 | 87.9 | inactive |
| CRYGD (GeneID 1421) | SID160723718 | 0.413 | 90.1 | 0.529 | 87.6 | inactive |
| CRYGD (GeneID 1421) | SID160748794 | -2.24 | 37.3 | -2.33 | 76.8 | inactive |
| REXO1L1P (GeneID 254958) | SID160762247 | -0.83 | 65.4 | -1.09 | 97.4 | inactive |
| REXO1L1P (GeneID 254958) | SID160762248 | 2.17 | 125 | 1.83 | 86.2 | inactive |
| REXO1L1P (GeneID 254958) | SID160762249 | 1.98 | 121 | 1.08 | 102 | inactive |
| ATP8A2 (GeneID 51761) | SID160741324 | 1.44 | 110 | 1.03 | 94 | inactive |
| ATP8A2 (GeneID 51761) | SID160741325 | 0.0862 | 83.6 | 0.0957 | 91.1 | inactive |
| ATP8A2 (GeneID 51761) | SID160741326 | 0.224 | 86.3 | 0.000616 | 96.5 | inactive |

The list goes on, starting with the last 4 of the part before.
| Gene | PubChem SID | total luciferase, z-score | total luciferase, % of control | luciferase per cell, z-score | viable cells, % of control | Call |
| --- | --- | --- | --- | --- | --- | --- |
| REXO1L1P (GeneID 254958) | SID160762249 | 1.98 | 121 | 1.08 | 102 | inactive |
| ATP8A2 (GeneID 51761) | SID160741324 | 1.44 | 110 | 1.03 | 94 | inactive |
| ATP8A2 (GeneID 51761) | SID160741325 | 0.0862 | 83.6 | 0.0957 | 91.1 | inactive |
| ATP8A2 (GeneID 51761) | SID160741326 | 0.224 | 86.3 | 0.000616 | 96.5 | inactive |
| PRSS46P (GeneID 100287362) | SID160734505 | 0.29 | 87.7 | -0.101 | 101 | inactive |
| PRSS46P (GeneID 100287362) | SID160772600 | -1.21 | 57.8 | -1.01 | 84.3 | inactive |
| PRSS46P (GeneID 100287362) | SID160772601 | 1.75 | 117 | 1.55 | 86.8 | inactive |
| PIDD1 (GeneID 55367) | SID160733604 | 0.868 | 99.2 | 0.318 | 102 | inactive |
| PIDD1 (GeneID 55367) | SID160743656 | -0.887 | 64.2 | -0.972 | 92.7 | inactive |
| PIDD1 (GeneID 55367) | SID160743657 | 0.135 | 84.6 | -0.107 | 97.2 | inactive |
| TBC1D19 (GeneID 55296) | SID160743470 | 1.04 | 103 | 0.465 | 101 | inactive |
| TBC1D19 (GeneID 55296) | SID160743472 | -1.62 | 49.6 | -1.59 | 84.2 | inactive |
| TBC1D19 (GeneID 55296) | SID160743473 | -1.59 | 50.3 | -1.23 | 77.7 | inactive |
| PTX4 (GeneID 390667) | SID160725268 | 0.484 | 91.5 | 1.68 | 65.8 | inactive |
| PTX4 (GeneID 390667) | SID160725269 | -1.94 | 43.4 | -1.4 | 70.1 | inactive |
| PTX4 (GeneID 390667) | SID160766556 | -0.87 | 64.6 | -0.486 | 82 | inactive |
| BCR (GeneID 613) | SID160723992 | -1.09 | 60.1 | -1.23 | 92.9 | inactive |
| BCR (GeneID 613) | SID160724075 | 2.11 | 124 | 1.79 | 86.4 | inactive |
| BCR (GeneID 613) | SID160724150 | 0.97 | 101 | 0.0613 | 111 | inactive |
| TCTN2 (GeneID 79867) | SID160749646 | 1.08 | 103 | 1.08 | 87 | inactive |
| TCTN2 (GeneID 79867) | SID160749647 | -0.226 | 77.4 | -0.000148 | 86.5 | inactive |
| TCTN2 (GeneID 79867) | SID160749648 | 0.0643 | 83.2 | 0.0406 | 91.9 | inactive |
